Measurements published in publication PMC10163288.
The other results are listed elsewhere or left out.

B1: il10ra_site1_sap_14_mot_HHH_b2_00943_af2_000000149_0001_1_17_H_._HHH_b1_08763_0001_0000100006_0000002_0_0001 (protein)
chain: SSSSDEAKQRAEELLEEAEELVEKGDPREALRVLAEAVKVALEGGDEELLQEIWRVIKEASSSSS
B2: il10ra_site1_sap_20_mot_HHH_b1_08009_000000194_0001_1_19_H_._HHH_b1_07350_0001_0000800039_0000001_0_0001 (protein)
chain: SSSSSSDYERSVKTMVKAARQLEDPEYARLALRFALAIAEAGNDEELQEEVRELLEELSSSSSSS
B3: il10ra_site1_normal_mot_HHH_b1_03333_000000091_0001_1_17_H_._HHH_b2_08380_af2_0001_0000300029_0000001_0 (protein)
chain: SSSSDEEFYEEVRRAIEKAVELQRNGNPEEAERLLEEVLEKAEELGNFAAAWAIRHLLRLLSSSS
B4: il10ra_site1_normal_mot_HHH_b2_02053_af2_000000006_0001_3_19_H_._HHH_b2_00530_af2_0001_0000300012_0000001_0 (protein)
chain: SSSSSSNEAERIYELLRRALQIDDEEEARELLEEAEELAKELGSEVAEITIRYALRQLSSSSSSS
B5: il10ra_site1_normal_mot_HHH_b1_02062_000000185_0001_1_20_H_._HHH_b1_06709_0001_0000300031_0000002_0 (protein)
chain: SSSSTSEEIYRLSRELAEAISEGDEELIEELLEEIRRLIEELGNLNLRFILEFLEKDARASSSSS
B6: il10ra_site1_sap_20_mot_HHH_b1_02766_af2_000000078_0001_42_56_H_._HHH_b2_04892_0001_0001000047_0000001_0_0001 (protein)
chain: SSSSDELSEEAMKLIERASELDQNGNPEEAKEVLERAEELAEEAGNRVLAWNIRFLLRRLSSSSS
B7: il10ra_site1_sap_22_mot_HHH_b2_04681_000000155_0001_43_57_H_._HHH_b2_03205_0001_0000100004_0000002_0_0001 (protein)
chain: SSSSSDEEEVEELLRRAEELRERGNPEEAAELLQRAVRIAAQAQNEELLREIWEVVKRLGSSSSS
B8: il10ra_site1_sap_17_mot_HHH_b2_04976_af2_000000223_0001_1_17_H_._HHH_b1_00122_0001_0000100010_0000002_0_0001 (protein)
chain: SSSSSDDERYVELALRFAEWLIEAGDPRAARIVLRVALRLAEEINNPELFERIEELLEELSSSSS
B9: il10ra_site1_normal_mot_HHH_b1_00999_000000080_0001_41_55_H_._HHH_b1_07298_0001_0000400050_0000001_1 (protein)
chain: SSSSDYEEEVKELLEELRRLLEEGDREKFLRLVLRVLRLILRNNDAELLQELWEIVREWGKSSSS
B10: il10ra_site1_normal_mot_HHH_b1_08622_000000192_0001_23_40_H_._HHH_b1_00172_0001_0000200022_0000001_0 (protein)
chain: SSSSSSALESLRWALEIAVEDGNEELLKKLLEYARRVLENLDEEEREQLEELLELAEEALSSSSS
B11: il10ra_site1_normal_mot_0750aae41c39e4229e2ea8fa354cc919_0001_1_000000144_0001_37_51_H_._HHH_b1_03276_0001_0000200009_0000001_0_af2pred_0001 (protein)
chain: SSSDAEQALLAAEVALRILLEDGNPERAQRALHFWAHLDEAAGNPELAEELREIFERLEEELSSS
B12: il10ra_site1_normal_mot_HHH_b1_05056_000000217_0001_1_20_H_._HHH_b2_04661_af2_0001_0000200010_0000002_0 (protein)
chain: SSSSDEEELEELLEELERLAKEGDRERFLRLVLRLSELIFRLGDEEALQLLWELVQRFARRSSSS
B13: il10ra_site1_sap_22_mot_HHH_b1_06577_000000038_0001_1_17_H_._7e5d6dae1157c95132ff0874b0fd9e6b_0001_1_af2_0001_0000900038_0000001_0_0001 (protein)
chain: SSSSSDEQQKLLELLKRAFRLALRGNPEEAKELLEEAEELAEELGDERALKMVRDLLRSLSSSSS
B14: il10ra_site1_normal_mot_8756ee2cf497b5429c717dfc0c0bcfd6_0001_000000186_0001_1_13_H_._HHH_b1_07134_af2_0001_0000300016_0000001_0_af2pred_0001 (protein)
chain: SSSSSEELRELIKLSRRLVELSLEGDEEEFEKLFEEAERIARELNDELALFLLESLERKFNSSSS
B15: il10ra_site1_sap_15_mot_HHH_b1_04592_af2_000000261_0001_39_52_H_._HHH_b1_07996_0001_0000100010_0000001_0_0001 (protein)
chain: SSSSETEKAARIAMEAVRLAIQLGDEEIFQELWELFKLVIREGDPEVTERLEELLEELRERSSSS
B16: il10ra_site1_normal_mot_HHH_b1_05357_000000034_0001_23_39_H_._HHH_b1_01707_af2_0001_0000200005_0000002_0 (protein)
chain: SSSSDEEERRRLEEEVERALEEGDPELASHIVIQLYALAHQLNDPELEELAKELARLVAQLSSSS
B17: il10ra_site1_sap_21_mot_HHH_b1_07286_af2_000000054_0001_1_19_H_._HHH_b2_02163_0001_0000200006_0000001_0_0001 (protein)
chain: SSSSSIERSLEHMLKAIKRALELGDQEYARRALRFVKWSAKWANDEEVEEEVKELEKELESSSSS
B18: il10ra_site1_normal_mot_HHH_b1_05056_000000217_0001_1_20_H_._HHH_b1_03397_af2_0001_0000100002_0000001_0_af2pred_0001 (protein)
chain: SSSSDEEVEELFKEAEEALKEGDREKASRLVLEAAKLAKELNDEELLQRIFRLLRRIHEASSSSS
B19: il10ra_site1_normal_mot_HHH_b2_02337_000000026_0001_38_52_H_._HHH_b1_06566_af2_0001_0000200012_0000001_0 (protein)
chain: SSSSSDEVEELLKEAEELLEEGNPREAARVAARATHHALRLGDAELLQEVWELVQEIAKLSSSSS
B20: il10ra_site1_normal_mot_HHH_b1_02997_000000220_0001_39_52_H_._HHH_b1_05536_0001_0000200023_0000001_1_af2pred_0001 (protein)
chain: SSSSDEEESREAFEILREALHIDDPEEVEELLERAQELAEEANNTALEINIKFALEHLKRSSSSS
B21: il10ra_site1_normal_mot_HHH_b1_04771_000000013_0001_40_56_H_._HHH_b2_03705_af2_0001_0000300016_0000002_0 (protein)
chain: SSSSNELVQRAAELSLKAFRLALRGNPEEAQEVLKEAEEVAEEGGDERLQRVIRDLLQALSSSSS
B22: il10ra_site1_normal_mot_HHH_b1_07256_000000044_0001_1_17_H_._HHH_eva_0781_0001_0000100004_0000003_0 (protein)
chain: SSSSSDEILEIIQHIARAAFRLGDPRLSELAVLLAEAYREGDEELQREVEELAEEVIKESSSSSS
B23: il10ra_site1_sap_11_mot_HHH_b2_00943_af2_000000149_0001_1_17_H_._HHH_b1_04515_af2_0001_0000200012_0000002_0_0001_af2pred_0001 (protein)
chain: SSSSSDEEEEEVEELLEEAKRIEDPAELAYVLLRAYAVAYRGNNPELRELVEEVAQELVRSSSSS
B24: il10ra_site1_normal_mot_HHH_b2_01205_000000166_0001_1_19_H_._HHH_b1_02799_0001_0000100005_0000002_0 (protein)
chain: SSSSDEENRRVYELIREAFELLEEGDEEEARRILEEAHEIAEEAGNYAALFSVELLLRQLKSSSS
B25: il10ra_site1_sap_31_mot_HHH_b1_06914_000000280_0001_1_18_H_._HHH_b2_04165_af2_0001_0000200004_0000001_0_0001 (protein)
chain: SSSSDEEKKRLLHLAWRLIRRYIEEGDPELREELEELLEEAREHGNQVVVKIIEFFLERFSSSSS
B26: il10ra_site1_normal_mot_HHH_b1_02004_000000220_0001_1_19_H_._HHH_b1_04324_af2_0001_0000400012_0000002_0 (protein)
chain: SSSSDEEFEEFKRLVEKVAELLEEGDEEEAEELIRRLEELAEERNTPALKWSVRLLKRVLSSSSS
B27: il10ra_site1_normal_mot_HHH_b1_01821_000000158_0001_23_39_H_._HHH_b2_04081_0001_0000200009_0000001_0 (protein)
chain: SSSSDVEERIEELIERAEELVEEGNPKEASRLLLEAVQLAYEIQDPELLQEIWEVFRKLFSSSSS
B28: il10ra_site1_sap_18_mot_HHH_b2_05984_000000071_0001_38_52_H_._HHH_b2_05995_0001_0000400025_0000001_0_0001 (protein)
chain: SSSSTEAARELYRLMREAVELDSEGNPEEARKVAEEAEELAEEAGNRVLLYTIRNLLKLINSSSS
B29: il10ra_site1_normal_mot_8756ee2cf497b5429c717dfc0c0bcfd6_0001_000000186_0001_1_13_H_._HHH_b1_06364_0001_0000400027_0000002_0_af2pred_0001 (protein)
chain: SSSSTVEEIYRLIRRVAELLHEGNPEEAREVLKEAKELAEEAGSLVLRAQLEYLEEIAEQLSSSS
B30: il10ra_site1_sap_16_mot_HHH_b2_06497_000000202_0001_1_20_H_._HHH_b2_00195_0001_0000400029_0000001_0_0001 (protein)
chain: SSSSSDEEEEEVEELLQEAERIEDPRERIEVLLRAVQIALHLGNPELLRKIWEVFRKLVSSSSSS
B31: il10ra_site1_sap_11_mot_HHH_b2_03328_af2_000000127_0001_1_19_H_._HHH_b2_01985_0001_0000500027_0000001_0_0001 (protein)
chain: SSSSNEEARELFELIEELVQLVRNGDEERFEELLREVKELAEEANNEAFLWVVEWLEKLLTSSSS
B32: il10ra_site1_sap_20_mot_HHH_b2_05454_000000273_0001_1_18_H_._HHH_b2_02369_0001_0000400025_0000002_0_0001 (protein)
chain: SDLSEVEEILRKIREIAEERGNESVQRSVEWLERVLEHAKERNDEELERAVEIYARFLLALVENS
B33: il10ra_site1_normal_mot_HHH_b2_05343_000000235_0001_19_35_H_._HHH_b2_03338_0001_0000100008_0000001_0 (protein)
chain: SSSSDEDEEEVQRLLEEAKESDDVQEVFELLKKAIEVAAETRNQELFRLIMEVIREILENSSSSS
B34: il10ra_site1_sap_20_mot_HHH_b2_02927_000000097_0001_42_56_H_._HHH_eva_0506_af2_0001_0000200006_0000002_0_0001 (protein)
chain: SSSSDEAYEIARRAIEEAKELWEEGNPEEVKRILEEAIELLEELNTVAAVFSLRHLLEALSSSSS
B35: il10ra_site1_sap_13_mot_HHH_b2_01729_af2_000000109_0001_43_56_H_._ems_3hC_807_af2_0001_0000900023_0000002_0_0001_af2pred_dldesign_0_af2pred (protein)
chain: SSSSDPLAELEALIDRLKAELGLSEEDRHKLRILLDYLTAAGYSKERIEELLETAARYLAESSSS
B36: il10ra_site1_normal_mot_HHH_b1_02997_000000220_0001_39_52_H_._HHH_b1_02344_0001_0000300030_0000001_0_af2pred_0001 (protein)
chain: SSSSTSHEILELLRRALELRQNGDPEEARKVAEEALELAEELNNELLERLIKFLLEQIERGSSSS
B37: il10ra_site1_normal_mot_8756ee2cf497b5429c717dfc0c0bcfd6_0001_000000186_0001_1_13_H_._HHH_b2_06464_af2_0001_0000200005_0000002_0 (protein)
chain: SSSSSEELRRLFELIRRIAELLHEGDEEEARELLEEAKELAEKLGNDVFRIQLEYLERQFSSSSS

biological target: il10ra, Q13651; assay: yeast display titration

Apparent Kd, inactive:
B1 no binding seen, B2 no binding seen, B3 no binding seen, B4 no binding seen, B5 no binding seen, B6 no binding seen, B7 no binding seen, B8 no binding seen, B9 no binding seen, B10 no binding seen, B11 no binding seen, B12 no binding seen, B13 no binding seen, B14 no binding seen, B15 no binding seen, B16 no binding seen, B17 no binding seen, B18 no binding seen, B19 no binding seen, B20 > 826 nM, B21 no binding seen, B22 no binding seen, B23 no binding seen, B24 no binding seen, B25 no binding seen, B26 no binding seen, B27 no binding seen, B28 no binding seen, B29 no binding seen, B30 no binding seen, B31 no binding seen, B32 no binding seen, B33 no binding seen, B34 no binding seen, B35 no binding seen, B36 no binding seen, B37 no binding seen
